Earlier results, collected in patent publication US20070286806A1, “Methods and Compositions for Modulating a Steroid Receptor” (Mount Sinai Hospital, priority 2004, published 2007).
The exact form of at least one protein or probe is not confirmed.

System: PSF C-terminally truncated form (no RRMs)
Test: binding assay
Conditions: CITED Urban et al 2002 (ref 43); cited from earlier work

“CTGAGTC (double strand) [PSF site in P450 side chain cleavage enzyme promoter]”: binds.
